Protein sequences, listed by entry. Tags and fused reporters are not part of them.
UniProt Q8NER1, whole entry, looked up: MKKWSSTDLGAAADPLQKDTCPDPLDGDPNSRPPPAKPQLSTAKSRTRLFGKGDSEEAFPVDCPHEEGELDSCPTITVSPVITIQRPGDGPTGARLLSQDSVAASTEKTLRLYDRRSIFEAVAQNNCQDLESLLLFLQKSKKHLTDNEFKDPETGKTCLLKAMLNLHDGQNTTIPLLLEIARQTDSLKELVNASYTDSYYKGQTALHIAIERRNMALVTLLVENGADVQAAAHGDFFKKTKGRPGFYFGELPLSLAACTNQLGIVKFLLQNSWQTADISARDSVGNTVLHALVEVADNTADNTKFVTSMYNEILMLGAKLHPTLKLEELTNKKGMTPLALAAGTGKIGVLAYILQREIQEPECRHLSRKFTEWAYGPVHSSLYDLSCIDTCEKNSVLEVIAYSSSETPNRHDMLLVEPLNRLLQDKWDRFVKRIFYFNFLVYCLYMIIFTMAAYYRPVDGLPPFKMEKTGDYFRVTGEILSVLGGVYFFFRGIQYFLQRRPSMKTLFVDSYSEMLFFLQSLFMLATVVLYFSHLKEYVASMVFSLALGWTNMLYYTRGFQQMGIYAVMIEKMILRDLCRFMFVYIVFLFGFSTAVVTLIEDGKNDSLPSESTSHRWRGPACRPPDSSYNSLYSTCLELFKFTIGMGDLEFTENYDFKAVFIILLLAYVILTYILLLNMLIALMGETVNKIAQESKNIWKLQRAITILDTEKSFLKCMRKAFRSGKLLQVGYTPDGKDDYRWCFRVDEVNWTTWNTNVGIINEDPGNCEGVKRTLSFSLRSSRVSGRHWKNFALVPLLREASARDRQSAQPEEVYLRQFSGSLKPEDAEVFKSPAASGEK

Screen size: about 320,000 compounds; about 620 (0.19%) were called active. Inconclusive results, whose numbers are uncertain, are shown with a selection of clear calls. Rule as the data show it: active = activation above about 80%; inconclusive = between about 30% and that limit; inactive = weaker than that.
Each compound was assayed against Transient receptor potential cation channel subfamily V member 1 (Homo sapiens) (UniProt Q8NER1) (assay: HTS Assay for Compounds that Act as Agonists of the Vanilloid Receptor 1). Settings: TRPV1-expressing cells, Fluo-8 calcium influx, agonist mode; at 8.33 µM, hits give high values.
Procedure, shortened: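 Cells expressing TRPV1 were dye-loaded with Fluo-8 and read kinetically: 10 s baseline, 3 min after compound (agonist portion), then 2 min after EC20 capsaicin (allosteric enhancer portion). Calcium-bound dye fluorescence at 480/520 nm.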
In the case of `C=CCn1c(COc2cccc3cccnc23)nnc1SCC(=O)O`, the activation is reported as inactive: -2.05%.
For `O=C(NCCc1ccccc1)c1ccc(S(=O)(=O)N2CCCC2)cc1`, the activation was inconclusive: 54.2%.
`O=C(CCNC(=O)c1ccc(Br)cc1)OCc1ccccc1Cl` was tested, and the activation was inconclusive: 41.7%.
With `CC(C)NC(=O)c1cc2cc([N+](=O)[O-])ccc2s1` the activation was inconclusive: 56.3%.
`CCCCn1c(O)c(N=Nc2ccccn2)c2ccccc21` was tested, and the activation was inconclusive: 37.8%.
In the case of `Cc1cc(C)c[n+](CC(=O)c2ccc(C)c([N+](=O)[O-])c2)c1`, the activation is reported as inactive: -0.767%.
With `CCOc1cc(N2CCOCC2)c(OCC)cc1NC(=O)COC(=O)CCOc1cc(C)ccc1C` the activation was inactive: 4.45%.
For `C=CCNC(=O)/C(C#N)=C/c1c(N(Cc2ccccc2)Cc2ccccc2)nc2ccccn2c1=O`, the activation was inconclusive: 46.6%.
With `Cn1c(-[n+]2c(-c3ccccc3)cc(-c3ccccc3)cc2-c2ccccc2)nc2c([N+](=O)[O-])cccc21` the activation was inconclusive: 34.8%.
With `Cc1ccc(C)c(CN2CCC(n3nccc3NC(=O)C3CCCC3)CC2)c1` the activation was inconclusive: 37.2%.
`CCCCN1C=C(C(=O)OC)C(c2ccccc2C(F)(F)F)C(C(=O)OC)=C1` was tested, and the activation was inconclusive: 32.2%.
With `Cc1c(C(=O)N/N=C/c2ccoc2)cccc1[N+](=O)[O-]` the activation was inactive: 0.995%.
With `Cc1ccc(-c2nc(C(=O)NCC3CCCO3)cc3c2[nH]c2ccccc23)cc1` (configuration not stated) the activation was inconclusive: 70.2%.
With `Cc1ccc(NC(=O)Cc2ccsc2)cc1Cl` the activation was inconclusive: 48.9%.
With `CC(C)c1ccc(NC(=O)CCS(=O)(=O)c2cccc3nonc23)cc1` the activation was inconclusive: 55.5%.
For `CCOC(=O)N1CCN(C(=O)c2cc3cc(Cl)ccc3[nH]2)CC1`, the activation was inconclusive: 40.7%.
With `S=C(NCc1ccccc1)NCc1ccc2c(c1)OCO2` the activation was inconclusive: 58.4%.
For `O=C(CN1CCC(C(=O)c2ccc(F)cc2)CC1)Nc1ccccc1`, the activation was inactive: 10.3%.
`Cc1ncoc1C(=O)NC1CC(C)(C)Cc2c1cnn2-c1ccccc1` (configuration not stated) was tested, and the activation was inconclusive: 63.6%.
For `S=C(NCCc1ccccc1)Nc1ccccc1`, the activation was inconclusive: 67%.
For `CCOC(=O)c1[nH]c2cc3c(cc2c1NC(=O)CN1CCCC1)OCO3`, the activation was inconclusive: 60.5%.
In the case of `O=C(NC1CC2CCC1C2)C1COc2ccccc2O1` (configuration not stated), the activation is reported as inconclusive: 34.3%.
In the case of `CCN(CC1COc2ccccc2O1)C(=S)NC1CC2CCC1C2` (configuration not stated), the activation is reported as inconclusive: 37.9%.
In the case of `O=C(Nc1cccc2ncccc12)c1ccc(-c2ccc(Br)cc2)o1`, the activation is reported as inconclusive: 41%.
With `CN(/N=C/c1cccs1)c1cc(=O)n(C)c(=O)[nH]1` the activation was inactive: 1.64%.
For `CCN(CC)S(=O)(=O)c1ccc(/C=C/C(=O)Nc2cccc(F)c2)cc1`, the activation was active: 96.9%.
`COC(=O)c1ccc(Cn2nc(-c3ccc(C)cc3)ccc2=O)cc1` was tested, and the activation was inconclusive: 30.1%.
With `Cc1ccc(O)c(-c2cc(C(=O)NCc3ccncc3)[nH]n2)c1` the activation was inconclusive: 34.9%.
With `O=C(Nc1cccc(F)c1)NC1CCN(Cc2ccccc2)CC1` the activation was inconclusive: 53.2%.
In the case of `O=C(NCC1(c2ccccc2)CCCC1)c1ccc(Br)cc1`, the activation is reported as inconclusive: 55.4%.
For `COc1ccc(CCNC(=O)C2CC(c3cc(C(F)(F)F)cc(C(F)(F)F)c3)=NO2)cc1` (configuration not stated), the activation was inconclusive: 34.5%.
For `CC(C)Cc1nnc(NC(=O)CCC(=O)N2CCN(Cc3ccccc3)CC2)s1`, the activation was inactive: -4.02%.
With `CCn1c(SC(C)C(=O)N2CCOCC2)nc2sc(C)c(C)c2c1=O` (configuration not stated) the activation was inconclusive: 41.3%.
`Cc1ccccc1C(=O)c1cccn1CC(=O)NCCC1=CCCCC1` was tested, and the activation was inconclusive: 55.8%.
`COc1ccc(NC(=O)NC23CC4(C)CC(C)(CC(C)(C4)C2)C3)cc1OC` was tested, and the activation was inconclusive: 48.9%.
In the case of `N#Cc1nccnc1S(=O)(=O)c1cccs1`, the activation is reported as inactive: 1.62%.
With `OC1(c2ccccc2)CN(c2ccccc2)C2=[N+]1CCS2` (configuration not stated) the activation was inconclusive: 48.2%.
`CCn1c(=O)c(=O)[nH]c2cc(C(=O)NC3CCCc4ccccc43)ccc21` (configuration not stated) was tested, and the activation was inactive: -1.16%.
With `CCCCCCSc1cc(-c2nc3cc(C)ccn3c2NCCCC)ccc1OC` the activation was inconclusive: 60.5%.
For `O=C(NC(=S)NCc1ccco1)c1cccc(Cl)c1`, the activation was inactive: 12.1%.
In the case of `CN1/C(=C\C(=O)c2oc3ccccc3c2N)C(C)(C)c2ccccc21`, the activation is reported as inconclusive: 39.9%.
`N=c1sccn1CC(=O)Nc1ccccc1Oc1ccccc1` was tested, and the activation was inconclusive: 36.5%.
In the case of `CCCOc1ccc(N2CC(C(=O)Nc3ccccc3OC)CC2=O)cc1` (configuration not stated), the activation is reported as inconclusive: 32.5%.
With `CCc1ccc(-n2cnc3cc(C(=O)NCC(OC)OC)ccc32)cc1` the activation was inactive: 7.42%.
With `CC(=O)NCCC(=O)Nc1cc(S(=O)(=O)N2CCCCC2)ccc1Oc1ccccc1` the activation was inactive: 2.45%.
`Cc1ccc(C)c(NC(=S)NCc2ccccc2)c1` was tested, and the activation was inconclusive: 41.6%.
`O=C(c1cc(-c2ccc(Br)cc2)on1)N1CCOCC1` was tested, and the activation was active: 99.2%.
`O=C(CNC1CCCC1)Nc1ccc(N2CCCCCC2)cc1` was tested, and the activation was inconclusive: 44.7%.
In the case of `Cc1ccc(OCC(=O)Nc2ccc3oc(=O)ccc3c2)cc1C`, the activation is reported as inconclusive: 63.1%.
For `O=C(NC1CCCCCCC1)c1ccc(Br)o1`, the activation was inconclusive: 48.7%.
`O=C1c2ccccc2-c2onc3ccc(NCc4ccco4)c1c23` was tested, and the activation was inactive: 14.1%.
For `Cc1ccc(NC(=O)COc2ccc(C(=O)c3ccccc3)cc2)c(O)c1`, the activation was inconclusive: 41.8%.
With `COc1ccc(N2CCN(C(=O)c3cc4c(s3)CCCCC4)CC2)cc1` the activation was inconclusive: 33.6%.
For `Cc1cccc(C)c1OCc1nc2ccccc2[nH]1`, the activation was inconclusive: 54.6%.
For `CCNC(=O)COC(=O)c1csc2c1CCCC2`, the activation was inconclusive: 47.5%.
For `O=C(Nc1ccccc1SCC1CSc2nc3ccccc3c(=O)n21)c1cccc(Cl)c1` (configuration not stated), the activation was inactive: -2.77%.
For `CCOC(=O)c1nnc(-c2ccccc2)nc1Oc1ccc(Cl)cc1`, the activation was inactive: 13.2%.
In the case of `CSc1ccc(CN(C)C(=O)c2cc(S(=O)(=O)NCc3ccccc3)ccc2C)cc1`, the activation is reported as inactive: 6.71%.
For `Cc1cccc(C)c1NC(=O)Cn1cnc2c(=O)n(C)c(=O)n(C)c21`, the activation was inactive: 1.29%.
With `CC(C)=CCC(C)(C)C1OCCN1C(=O)Nc1ccccc1` (configuration not stated) the activation was inconclusive: 51.4%.
For `CC(Nc1ccc(F)cc1F)C(=O)NC(=O)NC1CCCCC1` (configuration not stated), the activation was inconclusive: 33.2%.
In the case of `Cc1ccc(C(=O)Nc2ccc3c(c2)CCC3)o1`, the activation is reported as inconclusive: 49.2%.
With `CCC(=O)c1cn(CC(=O)Nc2cc(C)ccc2C)c2ccccc12` the activation was inactive: 4.78%.
In the case of `COc1cccc(/C=N/n2nnnc2N)c1OCc1ccccc1Cl`, the activation is reported as inconclusive: 38.4%.
`CC(C)CCNC(=O)c1cn(C)c2ccc(S(=O)(=O)N3CCCC3)cc2c1=O` was tested, and the activation was inconclusive: 41.9%.
In the case of `Cc1ccc2nc(-c3cccc(-c4cccc(Cl)c4)c3)c(NCc3ccccc3)n2c1`, the activation is reported as inconclusive: 79.2%.
With `S=C(NC1CCCCC1)N(CCc1ccccc1)CCc1ccccc1` the activation was inconclusive: 34.9%.
`O=C(N/N=C/c1ccncc1)c1ccc(OCc2ccccc2)cc1` was tested, and the activation was inconclusive: 73%.
In the case of `Cc1ccc(C(=O)Nc2ccc(CN3CCS(=O)(=O)CC3)cc2)cc1C`, the activation is reported as inconclusive: 33.3%.
`CC(C)n1ncc2c(C(=O)NCc3cccnc3)cc(C3CC3)nc21` was tested, and the activation was inconclusive: 68.4%.
With `CCN(CC)S(=O)(=O)c1cc(NC(=O)CCCOc2ccc(C(C)=O)cc2)ccc1C` the activation was inconclusive: 30.2%.
`O=C(N/N=C1\CC2CC=CC12)c1ccc(COc2ccccc2)cc1` (configuration not stated) was tested, and the activation was inactive: 12.5%.
In the case of `CN(C)c1ccc(/C=C2\CCCCC2=O)cc1`, the activation is reported as inconclusive: 31.3%.
`O=C(Nc1ccccc1)N1CCN(CCc2ccccc2)CC1` was tested, and the activation was inconclusive: 59.8%.
In the case of `Cc1cc(Nc2ccccc2)n(-c2ccccc2)n1`, the activation is reported as inconclusive: 39.9%.
With `CCCN1C(=O)/C(=C/c2c(NCCCOCC)nc3c(C)cccn3c2=O)SC1=S` the activation was inactive: 0.631%.
In the case of `CCOc1cc(CN2CCN(C(=O)c3cccc4ccccc34)CC2)ccc1OC`, the activation is reported as inactive: 2.16%.
`COc1ccc(N(C(=O)c2ccco2)S(=O)(=O)c2ccc(F)cc2)cc1` was tested, and the activation was inactive: 4.41%.
For `Cc1nnc(SCc2ccc(C(=O)Nc3cc(Cl)ccc3C)cc2)s1`, the activation was inconclusive: 54.8%.
With `COc1ccc2c(=O)c(-c3ccc(OC)c(OC)c3)coc2c1` the activation was inactive: 24.6%.
For `CCOC(=O)N1CCC(NC(=O)c2cnn3c2NC(c2ccco2)CC3C(F)(F)F)CC1` (configuration not stated), the activation was inactive: -0.343%.
In the case of `Cc1c(C(=O)NCC2CCCO2)oc2ccc3c(c12)C(=O)CC(C)(C)O3` (configuration not stated), the activation is reported as inconclusive: 67.5%.
With `Cc1nc(COc2ccc(C(=O)NCc3ccccc3CN3CCCCC3)cc2)cs1` the activation was inactive: -9.63%.
`Clc1ccc(/C=C/c2ncc3ccccn23)cc1` was tested, and the activation was inconclusive: 39.9%.
With `O=C(Nc1ccc(N2CCCC2)cc1)c1ccccc1[N+](=O)[O-]` the activation was inconclusive: 39.6%.
With `Cc1cc(/C=C(\C#N)C(=O)Nc2ccccc2)c(C)n1-c1ccc2c(c1)OCO2` the activation was inconclusive: 35%.
For `Cn1ccs/c1=N\C(=O)Nc1ccccc1`, the activation was inconclusive: 30.7%.
In the case of `O=C(NC1=NN(c2ccccc2)CC1)Nc1ccccc1F`, the activation is reported as inconclusive: 52.4%.
`C/C(=N\NC(=O)c1cc(O)ccc1O)c1cccc(NC(=O)c2ccc(Cl)cc2)c1` was tested, and the activation was inconclusive: 62.6%.
With `O=C(/C=C/c1ccc([N+](=O)[O-])cc1)c1ccco1` the activation was inconclusive: 31%.
`COc1ccc(-c2csc3nc(C)nc(N4CCC(C)CC4)c23)cc1OC` was tested, and the activation was inactive: -3.01%.
`CCn1c(SCC(=O)N2CCN(c3ccccc3)CC2)nc2c(c1=O)SC(C)C2` (configuration not stated) was tested, and the activation was inactive: 1.23%.
Also: 0% is about no effect.
